Data as given in PubChem BioAssay AID652243 (Drosophila RNAi Screening Center, 2013)

Test: 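Fly genes required for human androgen receptor driven transcription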 (primary screen)
Cell system: Drosophila S2R+ cells
Reagent: long dsRNA against Drosophila genes
Duration: 72 h (48 h, then 24 h hormone)
Conditions: synthetic androgen R1881 at 10 nM for 24 h
Measured: 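Firefly light from an androgen-responsive reporter and Renilla control light per well, raw and unnormalised, for each of two replicates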
Reading the numbers: firefly reporter light: higher = more light from androgen-responsive reporter; Renilla control light: higher = more constitutive control signal (cell number, transfection)
Hit rule: 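Across duplicate plates, a knock-down whose log firefly/Renilla ratio shifted a set fold down or up from the GFP/LacZ control mean was a hit; the downward cut appears as both 1.5 and 3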
Calls: active = hit: reporter lowered or raised; inactive = no hit
The screen tested about 24,000 reagents; this is an unselected part of those with a known target gene and a result. Of all reagents, 246 (1%) are marked active. 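Plates not normalised; calls are printed but the firefly/Renilla ratio behind them is not deposited; fold cut for lowering reported inconsistently.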 Raw values are not corrected between plates. Not given: the amount of reagent.

The opening 2 records, ahead of the listing:
CG12692 (GeneID 31372) [DRSC17881]
- firefly reporter light, replicate 1: 3.93e5
- firefly reporter light, replicate 2: 3.64e5
- Renilla control light, replicate 1: 2.61e6
- Renilla control light, replicate 2: 1.94e6
- outcome: inactive

Ptp36E (GeneID 35091) [DRSC03021]
- firefly reporter light, replicate 1: 2.27e5
- firefly reporter light, replicate 2: 1.68e5
- Renilla control light, replicate 1: 2.27e6
- Renilla control light, replicate 2: 1.37e6
- outcome: inactive

The listing, from the first entry:
CG12692 (GeneID 31372) [DRSC17881]
- firefly reporter light, replicate 1: 3.93e5
- firefly reporter light, replicate 2: 3.64e5
- Renilla control light, replicate 1: 2.61e6
- Renilla control light, replicate 2: 1.94e6
- outcome: inactive

Ptp36E (GeneID 35091) [DRSC03021]
- firefly reporter light, replicate 1: 2.27e5
- firefly reporter light, replicate 2: 1.68e5
- Renilla control light, replicate 1: 2.27e6
- Renilla control light, replicate 2: 1.37e6
- outcome: inactive

Ptp36E (GeneID 35091) [DRSC36844]
- outcome: inactive

Ptp36E (GeneID 35091) [DRSC36845]
- outcome: inactive

Su(var)3-3 (GeneID 40217) [DRSC10250]
- firefly reporter light, replicate 1: 35324
- firefly reporter light, replicate 2: 34722
- Renilla control light, replicate 1: 3.64e5
- Renilla control light, replicate 2: 2.86e5
- outcome: inactive

Su(var)3-3 (GeneID 40217) [DRSC24846]
- firefly reporter light, replicate 1: 5.38e5
- firefly reporter light, replicate 2: 7.20e5
- Renilla control light, replicate 1: 4.88e5
- Renilla control light, replicate 2: 5.41e5
- outcome: inactive

CG14135 (GeneID 39316) [DRSC10140]
- firefly reporter light, replicate 1: 3.19e5
- firefly reporter light, replicate 2: 2.91e5
- Renilla control light, replicate 1: 3.27e6
- Renilla control light, replicate 2: 1.95e6
- outcome: inactive

CG15461 (GeneID 50122) [DRSC20532]
- firefly reporter light, replicate 1: 1.52e5
- firefly reporter light, replicate 2: 1.34e5
- Renilla control light, replicate 1: 4.09e5
- Renilla control light, replicate 2: 1.89e5
- outcome: inactive

EMRE (GeneID 37071) [DRSC06686]
- firefly reporter light, replicate 1: 1.51e5
- firefly reporter light, replicate 2: 1.91e5
- Renilla control light, replicate 1: 2.43e6
- Renilla control light, replicate 2: 2.43e6
- outcome: inactive

Ube3a (GeneID 39266) [DRSC10600]
- firefly reporter light, replicate 1: 5.72e5
- firefly reporter light, replicate 2: 4.96e5
- Renilla control light, replicate 1: 1.62e6
- Renilla control light, replicate 2: 1.83e6
- outcome: inactive

CG2528 (GeneID 35435) [DRSC03724]
- firefly reporter light, replicate 1: 2.32e5
- firefly reporter light, replicate 2: 1.69e5
- Renilla control light, replicate 1: 1.79e6
- Renilla control light, replicate 2: 1.37e6
- outcome: inactive

CG31525 (GeneID 318782) [DRSC12004]
- firefly reporter light, replicate 1: 1.88e5
- firefly reporter light, replicate 2: 1.69e5
- Renilla control light, replicate 1: 4.75e5
- Renilla control light, replicate 2: 6.36e5
- outcome: inactive

cindr (GeneID 43654) [DRSC14126]
- firefly reporter light, replicate 1: 63302
- firefly reporter light, replicate 2: 72093
- Renilla control light, replicate 1: 6.83e5
- Renilla control light, replicate 2: 4.88e5
- outcome: inactive

so (GeneID 35662) [DRSC23096]
- firefly reporter light, replicate 1: 7.67e5
- firefly reporter light, replicate 2: 8.70e5
- Renilla control light, replicate 1: 6.21e5
- Renilla control light, replicate 2: 7.31e5
- outcome: inactive
